# The supplement of paper PMC7889204
# Structures can show the parent of a compound that is named as a salt. The list shows a part of the results. Many values rest on one well or one pass, so single values are uncertain.
# Test system: C6
# Experiment: cell mass (Coomassie absorbance) after combination of library compound with HMBA, relative to vehicle control (fraction); higher = more remaining cells (less growth inhibition)
row,SMILES,cell mass
1,CO[C@H]1/C=C\C=C(/C)C(=O)NC2=CC(=O)C(NCCN(C)C)=C(C[C@@H](C)C[C@H](OC)[C@H](O)[C@@H](C)/C=C(\C)[C@@H]1OC(N)=O)C2=O + CC(=O)NCCCCCCNC(C)=O [hexamethylene bisacetamide],0.247
2,CCc1c2c(nc3ccc(OC(=O)N4CCC(N5CCCCC5)CC4)cc13)-c1cc3c(c(=O)n1C2)COC(=O)[C@]3(O)CC [Irinotecan Hcl Trihydrate] + CC(=O)NCCCCCCNC(C)=O [hexamethylene bisacetamide],0.752
3,CCCCc1nc2cc(/C=C/C(=O)NO)ccc2n1CCN(CC)CC + CC(=O)NCCCCCCNC(C)=O [hexamethylene bisacetamide],0.216
4,Cc1[nH]nc2ccc(-c3cncc(OC[C@@H](N)Cc4ccccc4)c3)cc12 + CC(=O)NCCCCCCNC(C)=O [hexamethylene bisacetamide],0.519
5,CC(C)CC(=O)Nc1n[nH]c2c1CN(C(=O)C1CCN(C)CC1)C2(C)C + CC(=O)NCCCCCCNC(C)=O [hexamethylene bisacetamide],0.825
6,CN1CC[C@H](c2c(O)cc(O)c3c(=O)cc(-c4ccccc4Cl)oc23)[C@H](O)C1 [Flavopiridol] + CC(=O)NCCCCCCNC(C)=O [hexamethylene bisacetamide],0.263
7,CC[C@H](c1ccc(O)cc1)[C@@H](CC)c1ccc(O)cc1 [Hexestrol] + CC(=O)NCCCCCCNC(C)=O [hexamethylene bisacetamide],0.616
